PubChem BioAssay AID504444 (National Center for Advancing Translational Sciences (NCATS), 2011)
Screen size: about 360,000 compounds; about 7,500 (2.1%) were called active. This list was built around the results that the source calls inconclusive (neither active nor inactive); the mix of calls is not that of the screen. Calls follow the shape of the dose curve; as a rule, active = well fitted inhibition curve with a large enough effect; inconclusive = small, poorly fitted or top-dose-only effect, or effect the other way; inactive = flat fitted curve, though single readings scatter. A potency beside an inconclusive call is a rough fit, not a confirmed value.

Assay: Nrf2 qHTS screen for inhibitors; also: nearly all actives have a fitted effect of over 60% in size
Details: A549 ARE-Fluc reporter, luciferase luminescence, 18-24 h; activity change, negative = inhibition: at 46 µM (top of the series)
Outline: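 A549 ARE_Fluc cells (5000/well, 5% FBS OPTI-MEM) pre-incubated 2 h, then treated with compounds 18-24 h at 37C/5% CO2 in concentration-response. CellTiter-Fluor viability read first; BugLite luciferase luminescence after 15 min at room temperature gives Nrf2 activity.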
% is scaled to controls: 0 for no effect and ±100 for the full control effect; potency is read from the fitted curve at half-maximal effect.

Compound | Potency | activity change, negative = inhibition
CC(OC(=O)c1cccn1C)C(=O)Nc1ccc2c(c1)OCO2 (stereo unspecified) | active: 25.9 µM | –
CCc1nc(SCc2ccc(OC)c(Br)c2)n[nH]1 | inconclusive: 0.116 µM [falling, full curve, poor fit] | –
O=C(Cc1ccc(Br)cc1)Nc1ccccc1Sc1ccccc1 | inconclusive: 3.26 µM [falling, partial curve, poor fit] | –
CSc1nn2cc(CCN3CCOCC3)c(-c3ccc(F)cc3)nc2c1C#N | inconclusive: 5.8 µM [activator, single point] | –
CCOc1ccc2[nH]cc(C(=O)NCCc3ccccc3)c(=O)c2c1 | inconclusive: 29.1 µM [falling, single point] | –
CN(C)c1cccc(C(=O)NCC(c2ccco2)N(C)C)c1 (stereo unspecified) | inconclusive: 16.4 µM [activator, partial curve] | –
C/C(CCS(=O)(=O)c1ccccc1)=N/O | inconclusive: 7.31 µM [falling, partial curve] | –
CCOCCc1nnc(NC(=O)C(=O)c2cc(C)n(-c3cccc(C)c3)c2C)s1 | inconclusive: 25.9 µM [falling, partial curve, poor fit] | –
COc1ccc2c(c1)[C@H]1[C@H](CO2)[C@H](c2ccccc2)[C@]2(C)C(=O)Nc3cc(F)c(F)cc3C(=O)N12 | inconclusive: 2.91 µM [activator, partial curve] | –
O=C(NCc1cn2ccsc2n1)Nc1ccc(Cl)cc1 | inconclusive: 18.4 µM [falling, partial curve, poor fit] | –
Cc1c(Br)c(=O)[nH]c(=O)n1COCc1ccccc1 | inconclusive: 29.1 µM [falling, single point] | –
O=C(NCc1ccccc1)C(=O)Nc1cccc(C(=O)O)c1 | inconclusive: 7.31 µM [activator, partial curve] | –
Cc1cccc(N2CCN(S(=O)(=O)c3c(C)[nH]c(C)c3C(=O)N3CCCCC3)CC2)c1C | inconclusive: 29.1 µM [activator, single point] | –
Cc1cc(CNC(=O)c2ccc(C)c([N+](=O)[O-])c2)c2ccccc2n1 | inconclusive: 4.61 µM [falling, single point] | –
COc1cc(C2Nn3c(nnc3-c3ccccc3OC)S2)ccc1O (stereo unspecified) | inconclusive: 0.103 µM [activator, full curve, poor fit] | –
Cc1cc2oc(=O)cc(CN3CCN(S(=O)(=O)/C=C/c4ccccc4)CC3)c2cc1C | – | inactive: -24.7%
O=C(NC1CCCCC1)c1ccc2c(c1)sc1nc(-c3ccc(F)cc3)cn12 | – | inactive: 7.02%
O=C(Nc1ccc2c(c1)OCCO2)NC1CCCCC1 | inconclusive: 0.58 µM [activator, full curve] | –
CCOC(=O)c1sc(-c2ccccc2)cc1NC(=O)CSc1nnnn1C | inconclusive: 20.6 µM [falling, single point] | –
CCN(c1ccc(NC(=O)COC(=O)c2ccc(C)s2)cc1)C(C)C | inconclusive: 3.66 µM [falling, partial curve, poor fit] | –
Cc1ccsc1/C=N/NC(=O)c1ccncc1 | inconclusive: 32.6 µM [activator, single point] | –
CCCN(CCC)C(=O)CSc1nc2c(sc(=S)n2-c2ccc(OCC)cc2)c(=O)[nH]1 | inconclusive: 29.1 µM [falling, single point] | –

Compound | Potency | activity change, negative = inhibition
CCCCN(C)CCCNC(=O)Cn1ncc2c3ccccc3n(Cc3cccc(Cl)c3)c2c1=O | – | inactive: 11.4%
CCOc1ccccc1C(=O)Oc1c(S(=O)(=O)c2ccc(C)cc2)c(C)nn1-c1ccccc1 | – | inactive: -17.7%
Cc1ccc(C(=O)NCC(=O)OCC(=O)N(CC(C)C)c2c(N)n(Cc3ccccc3)c(=O)[nH]c2=O)cc1 | inconclusive: 4.61 µM [activator, full curve, poor fit] | –
CCOc1ccc2nc(NC(=O)Cc3cccs3)sc2c1 | inconclusive: 0.259 µM [activator, partial curve, poor fit] | –
Cn1c(=O)c2c(nc(Oc3ccccc3)n2C)n(C)c1=O | – | inactive: -24.9%
CCCCn1c(O)c(/C=C2\C=NN=C2c2ccccc2)sc1=S | inconclusive: 29.1 µM [falling, single point] | –
COc1cc(OC)cc(C(=O)NCC(=O)N2CC=C(c3ccccc3)CC2)c1 | – | inactive: 10.8%
Cc1c(CCOC(=O)c2ccc(N3CCOCC3)c([N+](=O)[O-])c2)sc[n+]1CC#N | active: 16.4 µM | –
COC(=O)[C@@]1(Cc2ccc(OC)cc2)[C@H]2c3cc(C(=O)N4CCCC4)n(Cc4c(CO)[nH]cc(C)c4=O)c3C[C@H]2CN1C(=O)c1ccccc1 | – | inactive: -8.51%
CCOC(=O)CC(NC(=O)c1ccccc1F)c1ccc(C)cc1 (stereo unspecified) | inconclusive: 2.31 µM [falling, partial curve] | –
NC(=Nc1nc(-c2ccccn2)cc2ccccc12)c1ccccn1 | active: 1.46 µM | –
Cc1ncc(CN2CCN(C(C)C)C(CCO)C2)s1 (stereo unspecified) | inconclusive: 13 µM [activator, partial curve, poor fit] | –
COc1ccc(NCc2cc3cc4c(cc3n(CC(=O)Nc3cccc(F)c3)c2=O)OCO4)cc1 | inconclusive: 25.9 µM [activator, partial curve, poor fit] | –
COc1ccc(/C=C2\COc3ccccc3C2=O)cc1OC | inconclusive: 32.6 µM [falling, single point] | –
O=S(=O)(c1ccc(Cl)cc1)n1ccc(-c2cccc(OCc3c(F)cccc3Cl)c2)n1 | inconclusive: 1.64 µM [falling, full curve, poor fit] | –
Cc1ccc(S(=O)(=O)NCc2ccccc2)cc1C(=O)N1CCCCCCC1 | – | inactive: -5.59%
Cc1ccc(C(=O)N/C(=C\c2cccs2)C(=O)NCCc2ccccn2)cc1C | inconclusive: 0.0082 µM [falling, full curve, poor fit] | –
CCc1nnc(NC(=O)c2ccc(S(=O)(=O)N3CCCc4ccccc43)cc2)o1 | inconclusive: 16.4 µM [falling, partial curve] | –
CCc1cccc(NC(=O)Cn2c(=O)n(-c3ccccc3C)c(=O)c3c2c2cc(C)ccc2n3C)c1 | inconclusive: 29.1 µM [activator, single point] | –
COc1cc(OC)c(NC(=O)Cn2c(=O)c(C(F)(F)F)nc3ccccc32)cc1Cl | – | inactive: 5.48%
c1ccc(-c2nc(-c3cccnc3)cs2)cc1 | inconclusive: 10.3 µM [activator, partial curve] | –
COC(=O)c1ccc(COc2ccccc2/C=C(\C#N)C(=O)Nc2c(C)cccc2C)cc1 | inconclusive: 20.6 µM [falling, single point] | –

3 compounds already listed, ordered by molecular weight, largest number first:
Compound | Potency | activity change, negative = inhibition
CCc1nnc(NC(=O)c2ccc(S(=O)(=O)N3CCCc4ccccc43)cc2)o1 | inconclusive: 16.4 µM [falling, partial curve] | –
COc1ccc(/C=C2\COc3ccccc3C2=O)cc1OC | inconclusive: 32.6 µM [falling, single point] | –
Cn1c(=O)c2c(nc(Oc3ccccc3)n2C)n(C)c1=O | – | inactive: -24.9%

Carrying on:

Compound | Potency | activity change, negative = inhibition
COc1ccc(-c2cc(C(F)(F)F)nc(SCC(=O)N3CCCCC3)n2)cc1OC | – | inactive: -6.48%
CCOC(=O)C1=C(COC(=O)C2(C)CC2(Cl)Cl)NC(=O)NC1c1ccc(OC)cc1 (stereo unspecified) | inconclusive: 10.3 µM [falling, partial curve, poor fit] | –
CC1CCc2c(C(=O)Nc3ccc(N4CCOCC4)cc3)csc2C1 (stereo unspecified) | inconclusive: 18.4 µM [falling, single point] | –
COc1ccccc1NC(=O)c1cc2c(CO)cnc(C)c2oc1=Nc1cccc(C(N)=O)c1 | – | inactive: -5.65%
CC(C)(C)c1cc(C(=O)N/N=C/c2ccc([N+](=O)[O-])s2)n[nH]1 | active: 20.6 µM | –
CCS(=O)(=O)N1CCc2cc(C(=O)N3CCN(c4ccc(OC)cc4)CC3)ccc21 | inconclusive: 23.1 µM [falling, single point] | –
COc1cccc(N2CC(C(=O)Nc3c(C(N)=O)oc4ccccc34)CC2=O)c1 (stereo unspecified) | inconclusive: 0.92 µM [falling, full curve, poor fit] | –
COc1ccc(-c2nc(SCC(=O)Nc3ccccc3)c(-c3ccc(F)cc3)[nH]2)cc1OC | active: 14.6 µM | –
CC(C)(C)c1cc(NC(=O)CSc2nnc(N)s2)n(-c2ccccc2)n1 | – | inactive: -14.5%
O=C(COC(=O)c1ccc(-c2ccc([N+](=O)[O-])cc2)o1)NC(=O)NC1CCCCC1 | – | inactive: -7.53%
Cc1cc(OCc2cc(C(=O)N(C)CC3CCOCC3)no2)cc(C)c1Cl | inconclusive: 32.6 µM [falling, single point] | –
COc1cc(NC(=O)CSc2nc(-c3cccs3)cc(C(F)(F)F)n2)cc(OC)c1OC | inconclusive: 9.2 µM [falling, partial curve] | –
C=CC(C)(C)O[C@@H]1O[C@H](CO)[C@@H](O)[C@H](O)[C@H]1O | inconclusive: 32.6 µM [activator, partial curve, poor fit] | –
Cc1ccc(C(=O)N2CCN(CCNC(=O)C(=O)NCc3ccc(Cl)cc3)CC2)cc1 | inconclusive: 18.4 µM [falling, partial curve] | –
CC(C)c1nc2oc3c(NCC4CCCO4)ncnc3c2c2c1COC(C)(C)C2 (stereo unspecified) | – | inactive: -6.01%
Cc1ccc(C)c2[nH]c(=O)c(CCNC(=O)c3ccc(Br)o3)cc12 | inconclusive: 1.16 µM [falling, partial curve] | –
CN(C)c1ccc(NC(=O)Nc2cccc(Cl)c2)cc1 | inconclusive: 9.2 µM [activator, partial curve, poor fit] | –
O=C(Nc1ccc(F)cc1F)c1cccc2c1C(=O)N(C1CCCCC1)C2 | – | inactive: 8.07%
CN(Cc1ccccc1N1CCCC1)C(=O)c1cc2cc(Cl)ccc2o1 | inconclusive: 32.6 µM [falling, single point] | –
C=C(C)C1CC=C(C)/C(=N\NC(=S)Nc2ccc(C)cc2)C1 (stereo unspecified) | – | inactive: 14.3%
CCCCCc1ccc(S(=O)(=O)Nc2cc(C)ccn2)cc1 | inconclusive: 16.4 µM [falling, single point] | –
O=C(Nc1cc(F)ccc1F)c1ccc2c(c1)nnn2C1CCCC1 | inconclusive: 29.1 µM [activator, single point] | –
